No constants are given. Whether binding was seen depends on the method and setting. In cells and extracts the contact can be indirect. A result given as binding can be weak or reduced; the word gives no strength.

Here are results for 3 molecules from publication PMC7853042.

Assay [1] addresses T1, Terminal (Ter) fragment of PDCD11 (human) (UniProt Q14690).
T1 sequence: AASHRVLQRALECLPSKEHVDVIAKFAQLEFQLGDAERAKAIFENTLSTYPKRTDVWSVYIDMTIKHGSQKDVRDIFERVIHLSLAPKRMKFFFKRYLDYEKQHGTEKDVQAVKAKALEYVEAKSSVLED
Briefly: co-IP; co-transfected cells lysed 48 h after transfection in RIPA buffer (50 mM Tris, 150 mM NaCl, 10% glycerol, 5 mM MgCl2, 0.5% NP40, protease inhibitor); anti-Flag agarose, 4 °C overnight; western blot (anti-GFP, anti-Flag). Background: In western blotting, separated proteins are transferred to a membrane and probed.

Assay [2] concerns the target Coil–coil fragment of PDCD11 (human). Described as above.

For the molecule “TAD domain of P65 (human) (domain or fragment)”, in assay [1], the binding result is recorded as “binds”.

For the molecule “TAD domain of c-Rel (human) (domain or fragment)”, in assay [1], the binding result is on record as “no binding”.

B1: RHD domain of c-Rel (domain or fragment, UniProt Q04864 8-297)
chain: PYIEIIEQPRQRGMRFRYKCEGRSAGSIPGEHSTDNNRTYPSIQIMNYYGKGKVRITLVTKNDPYKPHPHDLVGKDCRDGYYEAEFGQERRPLFFQNLGIRCVKKKEVKEAIITRIKAGINPFNVPEKQLNDIEDCDLNVVRLCFQVFLPDEHGNLTTALPPVVSNPIYDNRAPNTAELRICRVNKNCGSVRGGDEIFLLCDKVQKDDIEVRFVLNDWEAKGIFSQADVHRQVAIVFKTPPYCKAITEPVTVKMQLRRPSDQEVSESMDFRYLPDEKDTYGNKAKKQKTT
With B1, the binding result in assay [2] is “binds”.
